Results taken from US20190367620A1.

Target: cyFGFR1a-IIIc (cynomolgus monkey)
Test: SPR (Biacore 4000), antibody captured, His-tagged FGFR1 injected

B1: mAb #A08 (antibody, V domains shown)
VH: EVQLQESGPGLVKPSGTLSLTCAVSGGSISSNNWWSWVRQPPGKGLEWIGEIYHSGSTSYNPSLKSRVTISVDKSKNQFSLKLNSVTAADTAVYYCARGTDWFDPWGQGTLVTVSS
VL: QAVLTQPPSVSVAPGQTARITCGGNNIGSESVHWYQQKPGQAPVLVVYDDSDRPSGIPERFSGSNSGNTATLTISRVEAGDEADYYCQVWDSTSDHRVFGGGTKLTVL
In the case of B1, the binding is reported as “no binding”.

These are yes or no findings as the source states them, for the method shown.
